Source: PubChem BioAssay AID540276 (National Center for Advancing Translational Sciences (NCATS), 2011)
Values joined by “and” are separate entries in the source; they are usually repeats but may differ in a detail not shown here. Equal entries are not always repeated. Hit rate of the full screen: of about 300,000 compounds, about 5,400 (1.8%) were called active. Inconclusive means that the source gave no clear call. Such entries were picked first, then a sample of the others. The call rests on the fitted dose curve; tested in HEK293 cells. Potencies beside an inconclusive call are fits to weak or partial responses and may not hold up. Where a structure was tested more than once in an assay, its records may differ in their call.

Experiment: qHTS for inhibitors of binding or entry into cells for Marburg Virus
Conditions: Marburg virus pseudotyped entry inhibition, cell reporter; series mostly up to 37.8 µM
Potency means the concentration at half of the fitted maximal effect.

SMILES	Potency
O=C(CSc1nc2ccccc2c(=O)n1-c1ccc(F)cc1)Nc1ccc(Cl)c(S(=O)(=O)N2CCOCC2)c1	inconclusive: 14.1 µM [inhibitor, single point]
COc1ccc(-n2c(C)cc(/C=C3/SC(=S)N(C)C3=O)c2C)cc1	inconclusive: 1.41 µM [activator, full curve]
N=c1c2c(n(Cc3ccc(Cl)cc3Cl)c3c1CCC3)CCCC2	inconclusive: 0.891 µM [inhibitor, full curve, poor fit]
O=C(O)[C@H]1CCC(=O)N1Cc1ccco1	inactive
N#C/C(=C(/O)COc1ccc(Cl)cc1)c1nc2ccccc2s1	inactive
CCc1nnc(NC(=O)CSc2ccc(-c3ccco3)nn2)s1	inconclusive: 8.91 µM [activator, partial curve, poor fit]
CC(=O)c1c(O)c(C)c(O)c(Cc2c(O)c3c(c(C(=O)/C=C/c4ccccc4)c2O)OC(C)(C)C=C3)c1O	inactive and active: 3.16 µM
COc1ccc(Nc2nc(N3CCCC3)nc(N3CCCC3)n2)c(OC)c1	active: 2.06 µM
Cc1cc(=O)oc2cc(OCC(=O)OCC(=O)N3CCc4ccccc43)ccc12	inconclusive: 3.16 µM [inhibitor, partial curve, poor fit]
CCOc1ccc(NC(=O)c2ccccc2NS(=O)(=O)c2ccc(F)cc2)c([N+](=O)[O-])c1	inconclusive: 35.5 µM [inhibitor, partial curve, poor fit]
CCc1ccc2c(c1)C1(NN=C(c3ccc(C)cc3)S1)C(=O)N2 (centres undefined)	inconclusive: 28.2 µM [inhibitor, single point]
COc1ccccc1C(=O)NNC(=O)CCCN1C(=O)/C(=C/c2cccs2)SC1=S	inactive
COc1cc(C(=O)Oc2ccccc2/C=N/NC(=O)c2ccc(Cl)cc2)cc(OC)c1OC	active: 11.6 µM
COc1ccc(-c2nn(-c3ccccc3)cc2/C=N/NC(=O)c2cccc(S(=O)(=O)Nc3ccccc3Cl)c2)cc1	inconclusive: 15.8 µM [inhibitor, single point]
O=C(COc1ccc2ccccc2c1)NCC1CCCO1 (centres undefined)	inactive
CC(=O)c1c(O)c2ccccc2n(C)c1=O	inconclusive: 2.82 µM [activator, partial curve, poor fit]
Cc1ccc(-c2nnc(SCc3ccccc3F)o2)cc1	active: 16.4 µM
O=C(NCc1ccco1)c1cccc(N2CCCC2=O)c1	inconclusive: 29.1 µM [activator, single point]
CCOCc1cc(C)[nH]c(=O)c1C#N	inconclusive: 0.398 µM [activator, single point]

Molecules above that have a cyano group (two):
SMILES	Potency
N#C/C(=C(/O)COc1ccc(Cl)cc1)c1nc2ccccc2s1	inactive
CCOCc1cc(C)[nH]c(=O)c1C#N	inconclusive: 0.398 µM [activator, single point]
